In patent publication US20170101474A1 (FORMUREX, published 2017):
No constants are given. Whether binding was seen depends on the method and setting. Some results given as binding are weak or reduced against the parent protein; the word gives no strength.

Columns and labels:
Recombinant human EGFR [1] = target: T1, Recombinant human EGFR (human, UniProt P00533 25-645, limits assumed); assay: SPR, EGFR immobilized
T1 construct: Immobilized by amine coupling on a carboxymethyl dextran SPR chip; also called epidermal growth factor receptor; surface-immobilized EGFR

[2] = target: HER2 on MDA-MB-361 and ZR-75-1 cells (human) (UniProt P04626); assay: flow cytometry, FITC-labelled peptide 10 µM
[3] = target: HER2 on MDA-MB-361 and ZR-75-1 cells (human) (UniProt P04626); assay: confocal microscopy, FITC-labelled peptide 10 µM
[4] = target: HER2 on MDA-MB-361 and ZR-75-1 cells (human) (UniProt P04626); assay: flow cytometry, FITC-labelled peptide 10 µM, MDA-MB-361 and ZR-75-1 cells
Recombinant human EGFR [5] = target: T1, Recombinant human EGFR; assay: SPR, EGFR immobilized (FIG. 8b)
Recombinant human EGFR [6] = target: T1, Recombinant human EGFR; assay: SPR, EGFR immobilized on the chip, Pep11 injected at several concentrations

Row | binding (Recombinant human EGFR [1]) | binding [2] | binding [3] | binding [4] | binding (Recombinant human EGFR [5]) | binding (Recombinant human EGFR [6]) | Binder
1 | binds |  |  |  |  |  | AEYDFYGPGNEGSW (also called No. 24) [Pep24]
2 |  | binds | binds | binds |  |  | QKGLSGVSNPARNGTEYTV [HER2-PEP16]
3 |  | binds | binds | binds |  |  | QNYIFSGVSKARLGTDYTV [HER2-PEP20]
4 |  |  |  |  | binds | binds | WSGENGPGFYDYEA [Pep11]
5 |  | binds | binds | binds |  |  | PGNDTGLSRAPENSGFTYQ [HER2-PEP21]
6 |  | binds | binds | binds |  |  | QYTFGSNEPARSLGTDNGP [HER2-PEP11]
7 |  | binds | binds | binds |  |  | VGYDTGLRAPNSVGSTKQ [HER2-PEP7]
